Taken from: PubChem BioAssay AID1159578 (Peter MacCallum Cancer Centre, 2015)
The deposit covers about 18,000 reagents; shown is a part drawn at random. About 1,030 of them (5.7%) were called active. 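Inactive calls also include pools with fewer than 3300 nuclei, whose migration was not assessed.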 The raw values are shown without normalisation. Not all columns of the deposit are shown. Reagent sequences are not shown.

Purpose: 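Knock-downs that alter how fast lymphatic endothelial cells migrate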 (primary screen)
Cells: human lymphatic endothelial cells
Knock-down reagent: siRNA pool against human genes, 40 nM
Timing: 48 h after transfection
Read-out: 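High-content imaging of dye-stained cells in a scratch assay measures filled wound area and nuclei per well; duplicate means given as ratio to mock and robust z-score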
Direction: migration robust z-score: higher = faster migration into the scratch; nuclei per well: higher = more cells in the well
Call rule: 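Migration changed when robust z exceeds 2 or falls below -2 and mean nuclei number is at least 3300; otherwise not called changed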
Meaning of the calls: active = migration changed; inactive = no migration change, or too few cells

Gene | migration robust z-score | nuclei per well, duplicate mean | outcome
ELF1 (E74 like ETS transcription factor 1) | -0.05 | 5280 | inactive
FAM120B (family with sequence similarity 120 member B) | 0.22 | 5404 | inactive
SPATS2 (spermatogenesis associated serine rich 2) | -0.24 | 5090 | inactive
ETNK2 (ethanolamine kinase 2) | -3.87 | 3631 | active
IDI1 (isopentenyl-diphosphate delta isomerase 1) | -0.09 | 7400 | inactive
TTLL7 (tubulin tyrosine ligase like 7) | 0.26 | 7094 | inactive
PGM3 (phosphoglucomutase 3) | -0.31 | 6809 | inactive
VPS4B (vacuolar protein sorting 4 homolog B) | 1.04 | 5499 | inactive
TANC1 | -1.51 | 7207 | inactive
ACCS | -0.43 | 5620 | inactive
CLXN (calaxin) | -0.84 | 6995 | inactive
TRH (thyrotropin releasing hormone) | 0.15 | 5394 | inactive
LHX4 (LIM homeobox 4) | 0.31 | 6136 | inactive
MSL2 (MSL complex subunit 2) | -0.03 | 5024 | inactive
FOXG1 (forkhead box G1) | -0.08 | 5683 | inactive
ZNF705A (zinc finger protein 705A) | -0.33 | 6522 | inactive
NME3 (NME/NM23 nucleoside diphosphate kinase 3) | -2.75 | 3388 | active
INHBB (inhibin subunit beta B) | -0.42 | 5612 | inactive

A stretch of the results above:
Gene | migration robust z-score | nuclei per well, duplicate mean | outcome
ETNK2 (ethanolamine kinase 2) | -3.87 | 3631 | active
IDI1 (isopentenyl-diphosphate delta isomerase 1) | -0.09 | 7400 | inactive
TTLL7 (tubulin tyrosine ligase like 7) | 0.26 | 7094 | inactive
PGM3 (phosphoglucomutase 3) | -0.31 | 6809 | inactive
VPS4B (vacuolar protein sorting 4 homolog B) | 1.04 | 5499 | inactive
TANC1 | -1.51 | 7207 | inactive

Additional records:
Gene | migration robust z-score | nuclei per well, duplicate mean | outcome
BRD7 (bromodomain containing 7) | -2.46 | 3924 | active
SFRP4 (secreted frizzled related protein 4) | 0.96 | 6418 | inactive
ATF6B (activating transcription factor 6 beta) | 1.79 | 4770 | inactive
SMIM19 (small integral membrane protein 19) | -1 | 6214 | inactive
TNK1 (tyrosine kinase non receptor 1) | -2.1 | 3440 | active
SERP1 (stress associated endoplasmic reticulum protein 1) | 2.95 | 5804 | active
MS4A10 (membrane spanning 4-domains A10) | -0.24 | 6476 | inactive
ATP2B3 (ATPase plasma membrane Ca2+ transporting 3) | 1.12 | 6391 | inactive
IFNA21 (interferon alpha 21) | -0.07 | 6076 | inactive
ZNF704 (zinc finger protein 704) | 1.82 | 6334 | inactive
CDKL3 (cyclin dependent kinase like 3) | -1.2 | 5718 | inactive
ADPRM (ADP-ribose/CDP-alcohol diphosphatase, manganese dependent) | -0.25 | 6806 | inactive
MC5R (melanocortin 5 receptor) | -0.29 | 6934 | inactive
TLR8 (toll like receptor 8) | 1.17 | 5034 | inactive
STAG1 (STAG1 cohesin complex component) | -0.44 | 5188 | inactive
GBX2 (gastrulation brain homeobox 2) | -0.21 | 6188 | inactive
ANXA1 (annexin A1) | 0.85 | 6254 | inactive
USP47 (ubiquitin specific peptidase 47) | 0.55 | 5360 | inactive
RAP2A (RAP2A, member of RAS oncogene family) | 0.2 | 5880 | inactive
FADS6 (fatty acid desaturase 6) | -0.21 | 6314 | inactive
ARL15 (ARF like GTPase 15) | 0.74 | 5412 | inactive
